Values quoted from earlier work as cited in US20130005733A1, “COMBINATION ANTI-CANCER THERAPY” (OSI Pharmaceuticals, LLC, priority 2010, published 2013).
For at least one compound, name, drawing or mass did not settle the structure.

System: pAkt (S473)
Settings: cited from earlier work

## CO[C@H]1C[C@@H]2CC[C@@H](C)[C@@](O)(O2)C(=O)C(=O)N2CCCC[C@H]2C(=O)O[C@H]([C@H](C)C[C@@H]2CC[C@@H](O)[C@H](OC)C2)CC(=O)[C@H](C)/C=C(\C)[C@@H](O)[C@@H](OC)C(=O)[C@H](C)C[C@H](C)/C=C/C=C/C=C/1C [rapamycin]
  share of cancer cell lines in which pAkt (S473) is inhibited: ~20%
  share of cell lines in which pAkt (S473) is increased: 65%
